# Results are given in words; binding and its absence hold for the method and conditions named. In cells and extracts the contact can be indirect. These calls come from enrichment with a bait or labelling near it, and not all partners need be listed.
# T1: Transglutaminase-2 (mouse (endogenous in mouse brain)) (UniProt P21981)
# T1 sequence: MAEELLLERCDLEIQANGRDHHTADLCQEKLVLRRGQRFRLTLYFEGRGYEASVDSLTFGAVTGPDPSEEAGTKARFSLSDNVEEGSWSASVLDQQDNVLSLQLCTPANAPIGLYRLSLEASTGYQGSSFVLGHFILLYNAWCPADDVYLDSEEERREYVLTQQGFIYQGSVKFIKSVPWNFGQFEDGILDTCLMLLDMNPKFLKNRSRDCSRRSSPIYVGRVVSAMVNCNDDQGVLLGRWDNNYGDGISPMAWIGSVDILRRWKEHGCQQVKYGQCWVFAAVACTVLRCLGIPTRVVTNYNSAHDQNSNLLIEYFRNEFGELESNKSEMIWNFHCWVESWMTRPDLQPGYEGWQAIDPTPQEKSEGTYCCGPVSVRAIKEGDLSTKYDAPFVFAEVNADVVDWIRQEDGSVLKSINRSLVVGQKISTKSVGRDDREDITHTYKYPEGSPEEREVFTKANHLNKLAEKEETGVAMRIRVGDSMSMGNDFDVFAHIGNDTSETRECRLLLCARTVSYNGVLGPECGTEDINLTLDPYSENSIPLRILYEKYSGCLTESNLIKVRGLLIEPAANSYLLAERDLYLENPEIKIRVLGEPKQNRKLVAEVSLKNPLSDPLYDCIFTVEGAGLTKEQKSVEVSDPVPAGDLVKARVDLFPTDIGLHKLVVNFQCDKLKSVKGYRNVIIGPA
# Biological target: T1, Transglutaminase-2 (mouse (endogenous in mouse brain))
# Assay: affinity purification with mass spectrometry; TG2 immunoprecipitated from total brain homogenates of 18-month-old WT and APP23 mice with anti-TG2 antibody IA12 crosslinked to protein A/G magnetic beads, 22 h at 4 °C; IP lysis buffer 25 mM Tris pH 7.4, 150 mM NaCl, 1 mM EDTA, 1% NP40, 5% glycerol; on-bead trypsin digest, SWATH MS; TG2−/− cohorts as background, z-test p ≤ 0.05, n = 5 per cohort
row,Binder,binding
1,"Tenascin-R (protein, UniProt Q8BYI9 32-1358) RLEVTTERAQRQTVEEEGGASSYNTSSKEQPMVFNHVYNINVPLESLCSSGLEASAEQDMSAEDDTLAEYIGQTSDHESQVTFTHKINLPKKACPCASSSQVLQELLSRIEMLEREVSLLRDQCNTNCCQESAATGQLDYVPHCSGHGNFSFESCGCICNEGWFGKNCSEPYCPLGCSSRGVCVDGQCICDSEYSGDDCSELRCPTDCSSRGLCVDGECVCEEPYTGEDCRELRCPGDCSGKGQCANGTCLCQEGYAGEDCSQRRCLNACSGRGHCQEGLCICEEGYQGPDCSAVAPPEDLRVAGISDRSIELEWDGPMAVTEYVISYQPTALGGLQLQQRVPGDWSGVTIMELEPGLTYNISVYAVISNILSLPITAKVATHLSTPQGLQFKTITETTVEVQWEPFSFSFDGWEISFIPKNNEGGVIAQLPSDVTSFNQTGLKPGEEYIVNVVALKEQARSPPTSASVSTVIDGPTQILVRDVSDTVAFVEWTPPRAKVDFILLKYGLVGGEGGKTTFRLQPPLSQYSVQALRPGSRYEVSISAVRGTNESEASSTQFTTEIDAPKNLRVGSRTATSLDLEWDNSEAEAQEYKVVYSTLAGEQYHEVLVPKGIGPTTKTTLTDLVPGTEYGVGISAVMNSKQSIPATMNARTELDSPRDLMVTASSETSISLIWTKASGPIDHYRITFTPSSGISSEVTVPRDRTSYTLTDLEPGAEYIISITAERGRQQSLESTVDAFTGFRPISHLHFSHVTSSSVNITWSDPSPPADRLILNYSPRDKEEDMLEVLLDATKRHAVLMGLQPATEYIVNLVAVHGTVTSEPIVGSITTGIDPPKNITISNVTKDSLTVSWSSPVAPFDYYRVSYRPTQVGRLDSSVVPNTVTEFAITRLYPATEYEISLNSVRGREESERICTLVHTAMDSPMDLIATNITPTEALLQWKAPMGEVENYVIVLTHFAIAGETILVDGVSEEFQLVDLLPSTHYTVTMYATSGPLMSGTIATNFSTLLDPPDNLTASEVTRQSALISWQPPRAAIENYVLTYKSTDGSRKELIVDAEDTWIRLEGLSENTDYTVLLQAAQEATRSSLTSTVFTTGGRVFSHPQDCAQHLMNGDTLSGVYTIFLNGELSHKLQVYCDMTTDGGGWIVFQRRQNGQTDFFRKWADYRVGFGNLEDEFWLGLDNIHRITAQGRYELRVDMRDGQEAVFAYYDKFAVEDSRSLYKIRIGSYNGTAGDSLSYHQGRPFSTEDRDNDVAVTNCAMSYKGAWWYKNCHRTNLNGKYGESRHSQGINWYHWKGHEFSIPFVEMKMRPYIHRLTAGRKRRALKF",binds
2,"Hemopexin (protein, UniProt Q91X72 24-460) SPLPTANGRVAEVENGTKPDSDVPEHCLDTWSFDAATMDHNGTMLFFKGEFVWRGHSGTRELISARWKNPITSVDAAFRGPDSVFLIKEDKVWVYPPEKKENGYPKLFQEEFPGIPYPPDAAVECHRGECQSEGVLFFQGNRKWFWDFATRTQKERSWSTVGNCTAALRWLERYYCFQGNKFLRFNPVTGEVPPRYPLDARDYFVSCPGRGHGRPRNGTAHGNSTHPMHSRCSPDPGLTALLSDHRGATYAFTGSHYWRLDSSRDGWHSWPIAHHWPQGPSTVDAAFSWDDKVYLIQGTQVYVFLTKGGNNLVSGYPKRLEKELGSPPGISLETIDAAFSCPGSSRLYVSSGRRLWWLDLKSGAQATWTEVSWPHEKVDGALCLDKSLGPNTCSSNGSSLYFIHGPNLYCYSSIDKLNAAKSLPQPQKVNSILGCSQ",binds
3,"Nck-associated protein 1 (protein, UniProt P28660 1-1128) MSRSVLQPSQQKLAEKLTILNDRGVGMLTRLYNIKKACGDPKAKPSYLIDKNLESAVKFIVRKFPAVETRNNNQQLAQLQKEKSEILKNLALYYFTFVDVMEFKDHVCDLLNTIDVCQVFFDITVNFDLTKNYLDLTVTYTTLMILLSRIEERKAIIGLYNYAHEMTHGASDREYPRLGQMIVDYENPLKKMMEEFVPHSKSLSDALISLQMVYPRRNLSADQWRNAQLLSLISAPSTMLNPAQSDTMPCEYLSLDAMEKWIIFGFILCHGMLNTEATALNLWKLALQSSSCLSLFRDEVFHIHKAAEDLFVNIRGYNKRINDIRECKEAAVSHAGSMHRERRKFLRSALKELATVLSDQPGLLGPKALFVFMALSFARDEIIWLLRHADNMPKKSADDFIDKHIAELIFYMEELRAHVRKYGPVMQRYYVQYLSGFDAVVLNELVQNLSVCPEDESIIMSSFVNTMTSLSVKQVEDGEVFDFRGMRLDWFRLQAYTSVSKASLSLADHRELGKMMNTIIFHTKMVDSLVEMLVETSDLSIFCFYSRAFEKMFQQCLELPSQSRYSIAFPLLCTHFMSCTHELCPEERHHIGDRSLSLCNMFLDEMAKQARNLITDICTEQCTLSDQLLPKHCAKTISQAVNKKSKKQTGKKGEPEREKPGVESMRKNRLVVTNLDKLHTALSELCFSINYVPNMAVWEHTFTPREYLTSHLEIRFTKSIVGMTMYNQATQEIAKPSELLTSVRAYMTVLQSIENYVQIDITRVFNNVLLQQTQHLDSHGEPTITSLYTNWYLETLLRQVSNGHIAYFPAMKAFVNLPTENELTFNAEEYSDISEMRSLSELLGPYGMKFLSESLMWHISSQVAELKKLVVENVDVLTQMRTSFDKPDQMAALFKRLSSVDSVLKRMTIIGVILSFRSLAQEALRDVLSYHIPFLVSSIEDFKDHIPRETDMKVAMNVYELSSAAGLPCEIDPALVVALSSQKSENISPEEEYKIACLLMVFVAVSLPTLASNVMSQYSPAIEGHCNNIHCLAKAINQIAAALFTIHKGSIEDRLKEFLALASSSLLKIGQETDKTTTRNRESVYLLLDMIVQESPFLTMDLLESCFPYVLLRNAYHAVYKQSVTSSA",binds
4,"Protein S100-A13 (protein, UniProt P97352 1-98) MAAETLTELEAAIETVVSTFFTFAGREGRKGSLNINEFKELATQQLPHLLKDVGSLDEKMKTLDVNQDSELRFSEYWRLIGELAKEVRKEKALGIRKK",binds
5,"Ras-related protein Rab-3A (protein, UniProt P63011 1-220) MASATDSRYGQKESSDQNFDYMFKILIIGNSSVGKTSFLFRYADDSFTPAFVSTVGIDFKVKTIYRNDKRIKLQIWDTAGQERYRTITTAYYRGAMGFILMYDITNEESFNAVQDWSTQIKTYSWDNAQVLLVGNKCDMEDERVVSSERGRQLADHLGFEFFEASAKDNINVKQTFERLVDVICEKMSESLDTADPAVTGAKQGPQLTDQQAPPHQDCAC",binds
6,"Dynamin-1 (protein, UniProt P39053 1-867) MGNRGMEDLIPLVNRLQDAFSAIGQNADLDLPQIAVVGGQSAGKSSVLENFVGRDFLPRGSGIVTRRPLVLQLVNSTTEYAEFLHCKGKKFTDFEEVRLEIEAETDRVTGTNKGISPVPINLRVYSPHVLNLTLVDLPGMTKVPVGDQPPDIEFQIRDMLMQFVTKENCLILAVSPANSDLANSDALKIAKEVDPQGQRTIGVITKLDLMDEGTDARDVLENKLLPLRRGYIGVVNRSQKDIDGKKDITAALAAERKFFLSHPSYRHLADRMGTPYLQKVLNQQLTNHIRDTLPGLRNKLQSQLLSIEKEVDEYKNFRPDDPARKTKALLQMVQQFAVDFEKRIEGSGDQIDTYELSGGARINRIFHERFPFELVKMEFDEKELRREISYAIKNIHGIRTGLFTPDMAFETIVKKQVKKIREPCLKCVDMVISELISTVRQCTKKLQQYPRLREEMERIVTTHIREREGRTKEQVMLLIDIELAYMNTNHEDFIGFANAQQRSNQMNKKKTSGNQDEILVIRKGWLTINNIGIMKGGSKEYWFVLTAENLSWYKDDEEKEKKYMLSVDNLKLRDVEKGFMSSKHIFALFNTEQRNVYKDYRQLELACETQEEVDSWKASFLRAGVYPERVGDKEKASETEENGSDSFMHSMDPQLERQVETIRNLVDSYMAIVNKTVRDLMPKTIMHLMINNTKEFIFSELLANLYSCGDQNTLMEESAEQAQRRDEMLRMYHALKEALSIIGDINTTTVSTPMPPPVDDSWLQVQSVPAGRRSPTSSPTPQRRAPAVPPARPGSRGPAPGPPPAGSALGGAPPVPSRPGASPDPFGPPPQVPSRPNRAPPGVPSLGAWRLNSPQGKHENRAGKARL",binds
7,"Serine/threonine-protein phosphatase 5 (protein, UniProt Q60676 1-499) MAMAEGERTECAETPRDEPPADGTLKRAEELKTQANDYFKAKDYENAIKFYSQAIELNPGNAIYYGNRSLAYLRTECYGYALGDATRAIELDKKYIKGYYRRAASNMALGKFRAALRDYETVVKVKPNDKDAKMKYQECSKIVKQKAFERAIAGDEHRRSVVDSLDIESMTIEDEYSGPKLEDGKVTITFMKDLMQWYKDQKKLHRKCAYQILVQVKEVLCKLSTLVETTLKETEKITVCGDTHGQFYDLLNIFELNGLPSETNPYIFNGDFVDRGSFSVEVILTLFGFKLLYPDHFHLLRGNHETDNMNQIYGFEGEVKAKYTAQMYELFSEVFEWLPLAQCINGKVLIMHGGLFSEDGVTLDDIRKIERNRQPPDSGPMCDLLWSDPQPQNGRSVSKRGVSCQFGPDVTKAFLEENQLDYIIRSHEVKAEGYEVAHGGRCVTVFSAPNYCDQMGNKASYIHLQGSDLRPQFHQFTAVPHPNVKPMAYANTLLQLGMM",binds
8,"Ras-related protein Rap-2b (protein, UniProt P61226 1-183) MREYKVVVLGSGGVGKSALTVQFVTGSFIEKYDPTIEDFYRKEIEVDSSPSVLEILDTAGTEQFASMRDLYIKNGQGFILVYSLVNQQSFQDIKPMRDQIIRVKRYERVPMILVGNKVDLEGEREVSYGEGKALAEEWSCPFMETSAKNKASVDELFAEIVRQMNYAAQPNGDEGCCSACVIL",binds

# From publication PMC8834516
